Legend:
[1] = Convulsions (CNS effects) in conscious rats on intravenous administration; conditions: rat, in vivo
[2] = tested on: rabbits; experiment: Tissue irritation in rabbits, trypan-blue test after intracutaneous injection; conditions: rabbit
[3] = in vivo; conditions: mouse

CCN(CC)CC(=O)Nc1c(C)cccc1C [Lidocaine, lidocaine, reference compound]
TD50 [1]: 39 ± 2 mg/kg
Diameter of irritated zone ([2]; concentration 1.0%): 0.0 mm
Diameter of irritated zone ([2]; concentration 2.0%): 0.0 mm
Diameter of irritated zone ([2]; concentration 4.0%): 3.3 mm
LD50 [3]: 28 mg/kg
LD50 ([3]; iv): 28 mg/kg

— US4302465A, “Therapeutically active, substituted piperidines and pyrrolidines therapeutic compositions thereof and methods of use thereof” (priority 1979, dated 1981)
